Drawing on PubChem BioAssay AID1671190 (National Center for Advancing Translational Sciences (NCATS), 2021), this text covers Potency and activity change, negative = inhibition for 27 molecules.

Protein sequences, listed by entry. Tags and fused reporters are not part of them.
UniProt P18054, whole entry, looked up: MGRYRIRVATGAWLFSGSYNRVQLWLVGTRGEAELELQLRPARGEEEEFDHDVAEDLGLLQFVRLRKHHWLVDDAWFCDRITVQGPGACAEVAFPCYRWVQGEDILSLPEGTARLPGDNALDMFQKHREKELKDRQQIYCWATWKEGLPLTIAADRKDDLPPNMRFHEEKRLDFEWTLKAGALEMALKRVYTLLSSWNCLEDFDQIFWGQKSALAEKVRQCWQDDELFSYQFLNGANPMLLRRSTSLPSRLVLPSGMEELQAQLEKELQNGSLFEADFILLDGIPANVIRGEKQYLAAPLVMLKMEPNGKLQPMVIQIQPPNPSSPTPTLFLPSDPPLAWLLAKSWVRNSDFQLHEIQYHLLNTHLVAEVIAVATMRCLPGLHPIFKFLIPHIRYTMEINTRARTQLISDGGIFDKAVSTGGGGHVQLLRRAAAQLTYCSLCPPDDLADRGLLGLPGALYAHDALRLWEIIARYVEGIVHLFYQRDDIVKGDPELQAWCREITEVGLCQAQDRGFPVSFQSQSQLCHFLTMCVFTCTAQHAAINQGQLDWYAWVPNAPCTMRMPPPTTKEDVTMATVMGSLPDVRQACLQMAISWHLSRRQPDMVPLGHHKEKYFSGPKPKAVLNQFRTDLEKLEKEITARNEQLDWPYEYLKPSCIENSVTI

Each structure is given as a SMILES string. In all, about 580,000 compounds went through this assay and about 6,100 (1.1%) were called active. Not shown: some 15% with an inconclusive outcome. Calls follow the shape of the dose curve; as a rule, active = well fitted inhibition curve with a large enough effect; inconclusive = small, poorly fitted or top-dose-only effect, or another doubt; inactive = no such curve, though single readings can be large or run the other way. The entries are a selection whose mix differs from that of the whole data set. The source gives no active or inactive call for entries shown without one. Where a structure was tested more than once in an assay, its records may differ in their call.
% is scaled to controls: 0 for no effect and ±100 for the full control effect; potency is read from the fitted curve at half-maximal effect.

In this test the target is Polyunsaturated fatty acid lipoxygenase ALOX12 (Homo sapiens) (UniProt P18054). The test is described as follows: Primary qHTS assay for inhibitors of human arachidonate 12S-lipoxygenase (ALOX12): Round 2. As to conditions: purified 12hLO, xylenol orange hydroperoxide absorbance; activity change, negative = inhibition: at 0.00344 µM (top of the series). The essentials:
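Purified human 12hLO at 150 nM in 25 mM Hepes, 0.01% Triton X-100, pH 7.0, preincubated 15 min at room temperature with compound. Reaction started with 40 uM arachidonic acid, 30 min at room temperature. Hydroperoxide measured by Fe-xylenol orange, 573/405 nm absorbance ratio.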
On to `Cc1ccc2c(=O)c(-c3nc(-c4ccc(Cl)cc4)no3)cn(CC(=O)NCc3ccco3)c2n1`, for which the Potency was active: 20 µM.

For the molecule `CCCc1ccc(C2C3=C(CC(C)(C)CC3=O)NC3=C2C(=O)c2ccccc23)cc1` (configuration not stated), the Potency is active: 25.1 µM.

Turning to `C/C(=N/NC(=O)c1ccncc1)C(=O)O`, the activity change, negative = inhibition is -27.8%.

For `NC(=O)c1cnccn1`, the activity change, negative = inhibition is 16%.

Regarding `O=C(CCNNC(=O)c1ccncc1)NCc1ccccc1`, the activity change, negative = inhibition stood at 3.58%.

Regarding `Cc1nc2ccccn2c(=O)c1CCN1CCC(C(=O)c2ccc(F)cc2)CC1`, the activity change, negative = inhibition was -8.95%.

As for `Cc1ccccc1N1CCN(CCc2nnc3n2CCCC3)CC1`, the activity change, negative = inhibition is -7.85%.

`C/C=C/c1ccc(OC)cc1`: the activity change, negative = inhibition was -24.3%.

Consider `CCCCCCCCOc1ccc(C(=O)c2ccccc2)c(O)c1`, for which the activity change, negative = inhibition is -20.7%.

For `COc1nccnc1NS(=O)(=O)c1ccc(N)cc1`, the activity change, negative = inhibition worked out at 21.4%.

`CC(N)CCCC(C)(C)O` (configuration not stated): the activity change, negative = inhibition amounted to 14.6%.

`CCCOc1cccc(C2C(C(=O)c3ccco3)=C(O)C(=O)N2c2nnc(C)s2)c1` (configuration not stated): the Potency was active: 7.94 µM.

In the case of `C=CCc1cccc(OC)c1OCCOCCNCCO`, the Potency is active: 2.24 µM.

As to `O=C(O)c1ccccc1S`, the activity change, negative = inhibition is -9.43%.

Consider `Oc1cccc(O)c1`, for which the activity change, negative = inhibition is -17.5%.

In the case of `CC(=O)N(c1onc(C)c1C)S(=O)(=O)c1ccc(N)cc1`, the activity change, negative = inhibition is -20.1%.

On to `Cc1cc(O)cc(C)c1Cl`, for which the activity change, negative = inhibition is 49%.

For `CCC(=O)Oc1ccc2c(c1)CC[C@@H]1[C@@H]2CC[C@@]2(C)[C@H]1C[C@@H](OC(=O)CC)[C@@H]2OC(=O)CC`, the activity change, negative = inhibition came out at 3.83%.

In the case of `O=C1c2ccccc2C(=O)C1c1ccc(Br)cc1`, the activity change, negative = inhibition is -14.6%.

With `O=C(CN1C(=O)NC(c2ccc(Cl)cc2)C2=C1COC2=O)Nc1cc(F)cc(F)c1` (configuration not stated), the Potency was active: 11.2 µM.

In the case of `CN1CCCN(C(c2ccccc2)c2ccc(Cl)cc2)CC1` (configuration not stated), the activity change, negative = inhibition was -8.17%.

For `C[C@@H]1C[C@H]2[C@@H]3CCC4=CC(=O)C=C[C@]4(C)[C@@]3(Cl)[C@@H](O)C[C@]2(C)[C@@]1(OC(=O)c1ccco1)C(=O)CCl`, the activity change, negative = inhibition worked out at 0.908%.

With `O=C(O)c1ccccc1O`, the activity change, negative = inhibition came out at 1.45%.

In the case of `CCc1cccc(CC)c1NC(=O)CN(CC(=O)O)CC(=O)O`, the activity change, negative = inhibition is -13.2%.

Turning to `CCOc1ccc(C(=O)OCCN(CC)CC)cc1`, the activity change, negative = inhibition worked out at 24.9%.

With `C=C1c2cccc(O)c2C(O)=C2C(=O)[C@]3(O)C(O)=C(C(N)=O)C(=O)[C@@H](N(C)C)[C@@H]3[C@@H](O)[C@H]12`, the activity change, negative = inhibition is -6.11%.

Consider `Cc1ncc(CO)c(/C=N/NC(=S)Nc2ccc(Cl)c(Cl)c2)c1O`, for which the Potency was active: 44.7 µM.
